# Results: PubChem BioAssay AID720504 (National Center for Advancing Translational Sciences (NCATS), 2013)
# Chains of the proteins cited; added tags and fusions are not shown.
# UniProt P53350, whole entry, looked up: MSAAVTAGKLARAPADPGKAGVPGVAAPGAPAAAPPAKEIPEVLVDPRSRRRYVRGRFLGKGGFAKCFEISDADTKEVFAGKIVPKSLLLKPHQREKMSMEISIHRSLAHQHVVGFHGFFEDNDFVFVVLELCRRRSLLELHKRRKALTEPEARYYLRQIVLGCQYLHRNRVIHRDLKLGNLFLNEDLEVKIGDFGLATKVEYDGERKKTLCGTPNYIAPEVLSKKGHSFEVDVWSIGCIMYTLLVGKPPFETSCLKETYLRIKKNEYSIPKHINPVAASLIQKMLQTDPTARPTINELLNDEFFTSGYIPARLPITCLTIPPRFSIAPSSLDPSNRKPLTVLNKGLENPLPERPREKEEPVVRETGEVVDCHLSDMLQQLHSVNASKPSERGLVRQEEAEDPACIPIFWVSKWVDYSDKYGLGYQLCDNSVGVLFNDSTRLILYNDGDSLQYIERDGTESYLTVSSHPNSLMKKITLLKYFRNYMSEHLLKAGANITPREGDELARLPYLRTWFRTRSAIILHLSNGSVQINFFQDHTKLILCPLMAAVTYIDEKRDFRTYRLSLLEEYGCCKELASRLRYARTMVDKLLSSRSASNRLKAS
# Out of some 360,000 compounds screened, about 10,000 (2.8%) were called active. The shares of active, inactive and inconclusive entries below differ from those in the screen. The call rests on the fitted dose curve; in most records, active means well fitted inhibition curve with a large enough effect; inconclusive means small, poorly fitted or top-dose-only effect; inactive means flat fitted curve, though single readings scatter. A potency beside an inconclusive call is a rough fit, not a confirmed value.
# Target: Serine/threonine-protein kinase PLK1 (Homo sapiens) (UniProt P53350)
# Test: qHTS for Inhibitors of PLK1-PDB (polo-like kinase 1 - polo-box domain): Primary Screen; further: nearly all actives have a fitted effect of over 65% in size; on max response, negative = inhibition: series mostly up to about 57 µM
# Conditions: Plk1 PBD binding of FITC phosphopeptide, fluorescence polarization
# On the % scale 0 is the no-effect control and ±100 the full control effect; potency means the concentration at half of the fitted maximal effect.
SMILES,Potency,"max response, negative = inhibition"
O=C(O)/C(=C\c1ccc(Br)cc1)c1ccc(S(=O)(=O)N2CCCCC2)s1,"inconclusive: 21.2 µM [inhibitor, partial curve]",–
CCOC(=O)C/C(C)=N\Nc1nc(-c2ccccc2)cs1,"inconclusive: 26.7 µM [inhibitor, partial curve]",–
CC(=O)Nc1nnc(SCC(=O)c2ccc3c(c2)Cc2ccccc2-3)s1,–,inactive: -0.97%
CP(=O)(Nc1cc(Cl)ccc1Cl)c1nc2c(s1)CCCC2 (centres undefined),"inconclusive: 29.9 µM [inhibitor, single point]",–
O=C(CSc1nn(-c2ccccc2)c(=S)s1)Nn1cnnc1,–,inactive: -8.34%
CN(C)S(=O)(=O)c1cccc(NC(=O)CNCc2ccccn2)c1,–,inactive: -7.4%
O=C(NC1CCCCC1)C(c1cc2ccccc2o1)n1c(=O)c(-c2ccco2)nc2ccccc21 (centres undefined),"inconclusive: 26.7 µM [inhibitor, partial curve]",–
COc1cc2c(cc1NC(=O)COCC(=O)O)oc1ccccc12,"inconclusive: 33.6 µM [inhibitor, partial curve]",–
CCN(CC)S(=O)(=O)c1ccc2c(c1)c(=O)c(C(=O)NCCc1ccccc1)cn2C,"inconclusive: 29.9 µM [inhibitor, partial curve]",–
CC(C)CNC(=O)C1Nc2ccccc2C2C=CCC12 (centres undefined),"inconclusive: 15 µM [inhibitor, partial curve]",–
CC(=O)c1ccc(NC(=O)CSc2nnc(-c3ccco3)c(-c3ccco3)n2)cc1,active: 13.4 µM,–
COC(=O)c1c(C)oc2c1cc(NS(=O)(=O)c1ccc(C(=O)O)cc1)c1ccccc12,"inconclusive: 29.9 µM [inhibitor, partial curve]",–
COC(=O)c1ccccc1NC(=O)CSc1nc2cccnc2n1C,–,inactive: -14.5%
CC(O)(C#CCN1CCCCCC1)c1ccccc1 (centres undefined),active: 29.9 µM,–
Cc1ccc(Cn2c(C(C)Nc3nc(-c4ccc(F)cc4)cs3)nc3cc(C(F)(F)F)ccc32)cc1 (centres undefined),"inconclusive: 23.8 µM [inhibitor, single point]",–
S=c1[nH]nc(CNc2cccc(Cl)c2)o1,"inconclusive: 29.9 µM [inhibitor, partial curve]",–
CC(=O)c1ccccc1NS(=O)(=O)c1cccc2nsnc12,–,inactive: -17.8%
O=C1CSC(=S)N1/N=C/c1cccnc1,"inconclusive: 21.2 µM [inhibitor, partial curve]",–
CCOc1ccc2nc3cc(NCc4ccc(OC)cc4)ccc3c(N)c2c1,"inconclusive: 15 µM [inhibitor, partial curve]",–
CCN(CCO)c1nc(SC)nc2c1sc1nc(-c3ccco3)c3c(c12)CCC3,"inconclusive: 18.9 µM [inhibitor, partial curve]",–
CC1CCN(C(=O)c2ccc(S(=O)(=O)Cc3cccc(F)c3)c([N+](=O)[O-])c2)CC1,"inconclusive: 26.7 µM [inhibitor, partial curve]",–
COc1ccc(Cn2c(-c3ccc(OC)cc3)n[nH]c2=S)cc1,"inconclusive: 33.6 µM [inhibitor, single point]",–

SMILES,Potency,"max response, negative = inhibition"
CCc1nc2ccc(C(=O)N3CCN(c4cc(C)ccc4C)CC3)cc2nc1CC,"inconclusive: 29.9 µM [inhibitor, single point]",–
Cc1nc2c(-c3ccc(F)cc3)c(C)nn2c(N2CCOCC2)c1C,"inconclusive: 26.7 µM [inhibitor, single point]",–
CS(=O)(=O)NCCn1ccc2ccccc21,active: 29.9 µM,–
CCOc1ccc(CCNC(=O)c2cc3sccc3n2CC)cc1OCC,–,inactive: -0.302%
NS(=O)(=O)c1ccc(-c2ccc(/C=C3\NC(=S)NC3=O)o2)cc1,"inconclusive: 7.52 µM [inhibitor, single point]",–
O=C(O)c1cccc2c(-c3ccccc3)c(-c3ccccc3)[nH]c12,active: 23.8 µM,–
CC(C)CCN1C(Nc2ccccc2)=NC[C@@H]1Cc1ccccc1,"inconclusive: 37.7 µM [inhibitor, single point]",–
CCCCN(C)CCNC(=O)c1ccc(Cn2c(=S)[nH]c3ccc(Br)cc3c2=O)cc1,"inconclusive: 11.9 µM [inhibitor, partial curve]",–
COc1ccc(OC)c(-c2csc(NC(=O)CSc3ccc([N+](=O)[O-])cc3)n2)c1,"inconclusive: 29.9 µM [inhibitor, partial curve]",–
O=C(CSCc1ccccc1)Nc1cc([N+](=O)[O-])ccc1F,"inconclusive: 26.7 µM [inhibitor, single point]",–
CC(=O)Nc1ccc(C(=O)N2CCCC(c3cc(C(=O)NCc4ccc(F)cc4)no3)C2)cc1 (centres undefined),–,inactive: -10%
O=[N+]([O-])c1cc([N+](=O)[O-])c2c(=Nc3ccccc3)n(-c3ccccc3)n(O)c2c1,active: 5.97 µM,–
COc1ccc(COC(=O)CCc2cc(OC)c(OC)c(OC)c2)cc1F,"inconclusive: 37.7 µM [inhibitor, single point]",–
CN1CCN(c2cc(=O)n(C3CCCCC3)c(=O)[nH]2)CC1,–,inactive: -9.96%
CCN(CC)C(=O)[C@H]1C[C@H](CC(=O)NCc2ccco2)C(=O)N2CCc3c([nH]c4cc(-c5ccco5)ccc34)[C@]12C,"inconclusive: 21.2 µM [inhibitor, partial curve]",–
CCN(CC)c1ccc(C=C2C(=O)OC(C)(C(C)(C)C)OC2=O)cc1 (centres undefined),"inconclusive: 33.6 µM [inhibitor, partial curve]",–
O=C(CCC(=O)NNC(=O)c1ccccc1[N+](=O)[O-])NCc1ccccc1,"inconclusive: 16.8 µM [inhibitor, partial curve]",–
CC(C)[C@@H](C(=O)NC1CCCC1)N1C(=O)N2CCc3c([nH]c4ccccc34)[C@@]2(C)C1=O,–,inactive: -12.3%
Cc1nn(C)c(C)c1NC(=O)c1ccc(Cl)cc1,active: 29.9 µM,–
OC(COC(c1ccccc1)c1ccccc1)CN1CCOCC1 (centres undefined),active: 29.9 µM,–
CC(C)c1cc(CN2C(C)COCC2C)cc(C(C)C)c1O (centres undefined),–,inactive: -11.5%
COc1ccc(NC(=O)COc2ccc(C(=O)OCC(=O)N(C(C)C)C(C)C)cc2OC)cc1,active: 23.8 µM,–

# A different layout for part of the listing above:
SMILES	Potency	max response, negative = inhibition
CCc1nc2ccc(C(=O)N3CCN(c4cc(C)ccc4C)CC3)cc2nc1CC	inconclusive: 29.9 µM [inhibitor, single point]	–
COc1ccc(NC(=O)COc2ccc(C(=O)OCC(=O)N(C(C)C)C(C)C)cc2OC)cc1	active: 23.8 µM	–
